# About 55 (3%) of roughly 1,600 compounds were called active. Not shown: some 10% with an inconclusive outcome. Calls come from the whole dose curve; as a rule, active = well fitted inhibition curve with a large enough effect; inconclusive = small, poorly fitted or top-dose-only effect; inactive = no such curve, though single readings can be large or run the other way. The list shows a part of the results, in another mix than the full data.
# Experiment: qHTS for Inhibitors of TGF-b: Hit Validation in HepG2 Cells using COP promoter;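 note: 0% = TGF-beta stimulated DMSO wells and -100% = unstimulated cell wells; nearly all actives have a fitted effect of over 70% in size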
# Settings: HepG2 COP-GFP TGF-b reporter, GFP fluorescence, 18 h, cells stimulated by added recombinant TGF-beta; at 46.1 µM (top of the series)
# Text: TGF-b is a main component in the TGF-b signaling pathway which plays diverse roles in cellular and development pathways. TGF-b is the mediated by the transcription factors Smads. Although the Smad-dependent pathway is the primary canonical TGF-b signaling node, TGF-b1 can also activate alternative signaling pathways, including those involving MAPK (ERK, JNK and p38). This interaction may mediate or enhance Smad-dependent responses, or can exert Smad-independent effects. The complexity of this signaling cascade allows the TGF-b superfamily to perform unique, overlapping or redundant functions. We believe that targeting the TGF-beta pathway at the Smad-transcription factor level may eliminate the consequences of disrupting the entire pathway and offer specificity without affecting other signaling pathways. Smad3 is the primary transducer of TGF-b's signals and Smad3 regulates many functions attributed to TGF-b signaling. We hypothesize that Smad3 inhibitors will selectively eliminate Smad3-specific TGF-beta signals without undesired off-target effects. We aim to identify Smad3-small molecule antagonists using a quantitative high throughput screening (qHTS) approach. […]
# Suspensions of trypsinized HEPG2 COP-GFP cells were dispensed into white, tissue culture-treated, solid 1536-well plates at 5uL/well (1000 cells/well final concentration) in DMEM medium supplemented with 1% FBS. […] The plates were measured on an Acumen eX3 Explorer plate reader for GFP fluorescence (ex488/em500-530). GFP values were calculated by determining the mean GFP fluorescence of individual cells, and compiling these values for each well to determine a total well GFP signal. The %Activity was determined from the corrected fluorescence values. […] Concentration-response curves were fitted to the signals arising from the resulting fluorescence. The concentration-effect curves were then classified based on curve quality (r2), response magnitude and degree of measured activity, and compounds were subsequently categorized based on their curve class.
row,Structure (SMILES),"activity, negative = inhibition"
1,O=Cc1cn(Cc2ccc(F)cc2Cl)c2ccccc12,inactive: -17.1%
2,CCC(C)(O)C(=O)OC1C(=O)OC2CC3C(C)=CC(=O)C(O)C3(C)C3C4(O)OCC23C1C(C)C4O (stereo not drawn),inactive: 0.785%
3,COC(=O)C1=C(c2cc3ccccc3o2)C[C@@H]2CC[C@H]1N2C(=O)NC1CCCCC1,inactive: 17.2%
